No constants are given. Whether binding was seen depends on the method and setting. In cells and extracts the contact can be indirect. Binding can be weak; no strength is given.
Biological target: purified STAT5 protein
Test: pull-down; purified STAT5 incubated with in vitro translated FERM-JAK2 or JAK2-V617F for 3 h; beads washed; bound JAK2 detected by anti-JAK2 immunoblot (Fig. 3C); only the target purified

binding: binds
B1: FERM-JAK2, in vitro translated (protein, UniProt O60674 1-77; O60674 814-1132)
chain: MGMACLTMTEMEGTSTSSIYQNGDISGNANSMKQIDPVLQVYLYHSLGKSEADYLTFPSGEYVAEEICIAASKACGIELLTENDMLPNMRIGALGFSGAFEDRDPTQFEERHLKFLQQLGKGNFGSVEMCRYDPLQDNTGEVVAVKKLQHSTEEHLRDFEREIEILKSLQHDNIVKYKGVCYSAGRRNLKLIMEYLPYGSLRDYLQKHKERIDHIKLLQYTSQICKGMEYLGTKRYIHRDLATRNILVENENRVKIGDFGLTKVLPQDKEYYKVKEPGESPIFWYAPESLTESKFSVASDVWSFGVVLYELFTYIEKSKSPPAEFMRMIGNDKQGQMIVFHLIELLKNNGRLPRPDGCPDEIYMIMTECWNNNVNQRPSFRDLALRVDQIRDNMAG

— article PMC10850816
